This note sets out measurements from the supplement of paper PMC6411743.

Sequences of proteins named here, by UniProt entry; tags and fusion partners are left off. A change or cut given only in a name is not applied to a line headed by its entry.
UniProt Q53QZ3: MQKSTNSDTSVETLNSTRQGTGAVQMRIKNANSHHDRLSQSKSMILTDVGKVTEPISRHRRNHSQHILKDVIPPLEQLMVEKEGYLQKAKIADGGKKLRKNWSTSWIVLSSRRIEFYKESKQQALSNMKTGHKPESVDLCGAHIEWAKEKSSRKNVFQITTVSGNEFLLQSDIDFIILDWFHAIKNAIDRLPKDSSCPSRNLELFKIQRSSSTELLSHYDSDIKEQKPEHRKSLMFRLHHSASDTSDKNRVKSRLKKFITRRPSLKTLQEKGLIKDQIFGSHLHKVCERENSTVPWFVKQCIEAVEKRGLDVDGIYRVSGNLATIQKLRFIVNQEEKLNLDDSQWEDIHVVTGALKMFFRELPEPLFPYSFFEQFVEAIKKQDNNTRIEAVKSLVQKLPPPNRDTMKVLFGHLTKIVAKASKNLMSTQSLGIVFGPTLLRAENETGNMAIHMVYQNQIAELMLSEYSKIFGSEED
UniProt Q5T6F2: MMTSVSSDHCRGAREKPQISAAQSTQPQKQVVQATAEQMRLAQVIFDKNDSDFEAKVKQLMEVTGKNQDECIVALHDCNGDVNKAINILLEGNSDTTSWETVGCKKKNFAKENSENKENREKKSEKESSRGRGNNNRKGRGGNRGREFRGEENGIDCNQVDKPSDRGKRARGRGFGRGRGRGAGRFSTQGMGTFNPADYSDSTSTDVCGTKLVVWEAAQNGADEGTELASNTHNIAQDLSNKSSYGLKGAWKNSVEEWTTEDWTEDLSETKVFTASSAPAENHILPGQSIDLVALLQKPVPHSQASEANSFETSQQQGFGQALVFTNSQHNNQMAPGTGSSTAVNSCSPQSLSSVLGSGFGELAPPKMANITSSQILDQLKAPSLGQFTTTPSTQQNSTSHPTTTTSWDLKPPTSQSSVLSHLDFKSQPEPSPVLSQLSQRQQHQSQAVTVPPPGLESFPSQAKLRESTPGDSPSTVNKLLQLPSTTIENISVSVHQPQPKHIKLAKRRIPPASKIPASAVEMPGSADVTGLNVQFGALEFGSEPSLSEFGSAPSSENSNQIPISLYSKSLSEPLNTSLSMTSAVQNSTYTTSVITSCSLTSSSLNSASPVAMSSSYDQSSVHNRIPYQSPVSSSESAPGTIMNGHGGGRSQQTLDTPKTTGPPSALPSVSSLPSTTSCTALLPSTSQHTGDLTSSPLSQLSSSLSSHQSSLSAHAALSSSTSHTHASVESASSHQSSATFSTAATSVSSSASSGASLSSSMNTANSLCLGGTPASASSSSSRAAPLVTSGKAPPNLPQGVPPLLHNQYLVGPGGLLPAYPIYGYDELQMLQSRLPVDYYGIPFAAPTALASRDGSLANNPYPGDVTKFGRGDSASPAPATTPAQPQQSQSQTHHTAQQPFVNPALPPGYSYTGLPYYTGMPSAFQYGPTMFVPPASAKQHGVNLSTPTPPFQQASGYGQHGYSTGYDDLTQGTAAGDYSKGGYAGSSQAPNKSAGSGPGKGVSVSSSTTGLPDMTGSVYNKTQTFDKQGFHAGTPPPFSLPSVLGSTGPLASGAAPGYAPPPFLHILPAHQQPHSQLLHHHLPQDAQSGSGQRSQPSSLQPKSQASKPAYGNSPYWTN
UniProt Q32M88: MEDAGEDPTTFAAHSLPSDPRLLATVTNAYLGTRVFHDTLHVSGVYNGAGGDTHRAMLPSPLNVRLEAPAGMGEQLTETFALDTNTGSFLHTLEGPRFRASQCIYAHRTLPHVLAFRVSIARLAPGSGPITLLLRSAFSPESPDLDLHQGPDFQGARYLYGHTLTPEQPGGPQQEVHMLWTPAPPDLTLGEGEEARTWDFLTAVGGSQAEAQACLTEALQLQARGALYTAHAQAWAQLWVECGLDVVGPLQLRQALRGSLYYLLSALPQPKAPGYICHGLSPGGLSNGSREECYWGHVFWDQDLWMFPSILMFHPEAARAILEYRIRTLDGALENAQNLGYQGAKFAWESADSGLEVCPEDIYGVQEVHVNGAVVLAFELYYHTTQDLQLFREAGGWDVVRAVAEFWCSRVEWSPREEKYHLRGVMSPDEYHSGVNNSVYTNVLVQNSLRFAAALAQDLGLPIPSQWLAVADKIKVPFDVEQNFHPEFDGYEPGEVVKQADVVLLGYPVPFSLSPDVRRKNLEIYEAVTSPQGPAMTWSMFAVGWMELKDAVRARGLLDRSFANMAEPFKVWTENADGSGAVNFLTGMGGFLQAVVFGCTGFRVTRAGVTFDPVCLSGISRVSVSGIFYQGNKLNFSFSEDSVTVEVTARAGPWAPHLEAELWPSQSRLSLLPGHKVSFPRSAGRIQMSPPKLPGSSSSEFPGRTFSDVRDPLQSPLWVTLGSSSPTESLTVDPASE
UniProt Q15653: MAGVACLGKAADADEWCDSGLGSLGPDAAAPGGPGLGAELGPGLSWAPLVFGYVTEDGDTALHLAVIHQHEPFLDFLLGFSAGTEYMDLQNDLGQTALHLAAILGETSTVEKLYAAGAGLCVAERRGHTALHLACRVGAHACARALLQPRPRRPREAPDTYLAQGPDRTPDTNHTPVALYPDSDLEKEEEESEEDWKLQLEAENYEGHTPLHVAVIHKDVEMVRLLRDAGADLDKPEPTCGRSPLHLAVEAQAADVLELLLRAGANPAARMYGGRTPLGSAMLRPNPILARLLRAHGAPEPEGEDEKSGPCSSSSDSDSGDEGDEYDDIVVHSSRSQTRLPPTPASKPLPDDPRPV
UniProt Q3MHD2: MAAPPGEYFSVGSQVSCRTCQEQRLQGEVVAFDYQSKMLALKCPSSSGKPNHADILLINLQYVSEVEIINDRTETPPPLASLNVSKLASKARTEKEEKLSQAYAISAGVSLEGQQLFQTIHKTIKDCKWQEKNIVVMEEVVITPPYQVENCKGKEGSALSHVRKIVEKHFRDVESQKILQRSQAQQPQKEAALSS
UniProt Q4V328: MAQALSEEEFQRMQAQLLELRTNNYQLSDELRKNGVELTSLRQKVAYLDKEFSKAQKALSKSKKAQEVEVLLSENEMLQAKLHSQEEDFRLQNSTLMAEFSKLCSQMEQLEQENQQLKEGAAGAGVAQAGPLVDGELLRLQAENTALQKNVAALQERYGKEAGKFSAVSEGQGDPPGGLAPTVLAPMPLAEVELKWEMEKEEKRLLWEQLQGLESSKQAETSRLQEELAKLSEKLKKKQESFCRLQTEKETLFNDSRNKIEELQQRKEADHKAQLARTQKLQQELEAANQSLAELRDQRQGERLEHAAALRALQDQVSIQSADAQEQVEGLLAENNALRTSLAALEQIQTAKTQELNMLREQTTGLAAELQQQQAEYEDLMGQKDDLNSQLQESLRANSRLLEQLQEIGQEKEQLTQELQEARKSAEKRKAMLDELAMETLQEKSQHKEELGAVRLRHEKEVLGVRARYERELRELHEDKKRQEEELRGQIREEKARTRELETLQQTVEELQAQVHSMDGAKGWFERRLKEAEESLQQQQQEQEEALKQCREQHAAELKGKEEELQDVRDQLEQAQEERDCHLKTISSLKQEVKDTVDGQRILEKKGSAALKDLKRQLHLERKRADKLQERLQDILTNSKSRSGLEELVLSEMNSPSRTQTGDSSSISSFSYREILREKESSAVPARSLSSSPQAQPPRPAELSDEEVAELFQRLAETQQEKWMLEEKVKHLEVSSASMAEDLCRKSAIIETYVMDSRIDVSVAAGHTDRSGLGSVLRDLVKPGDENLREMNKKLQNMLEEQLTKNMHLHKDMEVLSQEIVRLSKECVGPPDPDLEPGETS
UniProt Q15645: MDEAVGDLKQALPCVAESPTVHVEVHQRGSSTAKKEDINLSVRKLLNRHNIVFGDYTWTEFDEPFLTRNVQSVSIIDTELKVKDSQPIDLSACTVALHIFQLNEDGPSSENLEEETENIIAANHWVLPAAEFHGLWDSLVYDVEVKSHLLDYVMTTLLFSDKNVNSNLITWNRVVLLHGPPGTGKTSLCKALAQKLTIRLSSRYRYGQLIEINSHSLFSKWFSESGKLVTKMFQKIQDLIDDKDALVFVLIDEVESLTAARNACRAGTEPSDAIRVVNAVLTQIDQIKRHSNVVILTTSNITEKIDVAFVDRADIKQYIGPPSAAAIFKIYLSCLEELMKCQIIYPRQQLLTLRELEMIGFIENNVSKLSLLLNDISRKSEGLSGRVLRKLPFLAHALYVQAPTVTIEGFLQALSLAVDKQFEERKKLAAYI
UniProt Q2T9J0: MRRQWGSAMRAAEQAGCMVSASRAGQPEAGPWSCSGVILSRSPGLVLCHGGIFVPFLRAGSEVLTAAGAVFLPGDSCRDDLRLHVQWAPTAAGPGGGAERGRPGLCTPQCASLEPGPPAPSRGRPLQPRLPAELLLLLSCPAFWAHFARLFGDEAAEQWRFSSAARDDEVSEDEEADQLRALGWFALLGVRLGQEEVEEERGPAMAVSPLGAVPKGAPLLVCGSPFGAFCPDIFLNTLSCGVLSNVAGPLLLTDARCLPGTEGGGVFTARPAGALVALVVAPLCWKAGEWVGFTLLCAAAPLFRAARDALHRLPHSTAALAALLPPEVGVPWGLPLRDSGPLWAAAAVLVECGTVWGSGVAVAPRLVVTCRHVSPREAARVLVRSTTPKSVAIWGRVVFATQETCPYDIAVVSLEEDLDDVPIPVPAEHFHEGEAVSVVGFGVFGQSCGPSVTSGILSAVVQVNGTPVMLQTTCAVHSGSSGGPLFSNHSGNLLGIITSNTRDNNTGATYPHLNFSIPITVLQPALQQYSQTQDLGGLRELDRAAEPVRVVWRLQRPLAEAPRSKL
UniProt Q5JTV8: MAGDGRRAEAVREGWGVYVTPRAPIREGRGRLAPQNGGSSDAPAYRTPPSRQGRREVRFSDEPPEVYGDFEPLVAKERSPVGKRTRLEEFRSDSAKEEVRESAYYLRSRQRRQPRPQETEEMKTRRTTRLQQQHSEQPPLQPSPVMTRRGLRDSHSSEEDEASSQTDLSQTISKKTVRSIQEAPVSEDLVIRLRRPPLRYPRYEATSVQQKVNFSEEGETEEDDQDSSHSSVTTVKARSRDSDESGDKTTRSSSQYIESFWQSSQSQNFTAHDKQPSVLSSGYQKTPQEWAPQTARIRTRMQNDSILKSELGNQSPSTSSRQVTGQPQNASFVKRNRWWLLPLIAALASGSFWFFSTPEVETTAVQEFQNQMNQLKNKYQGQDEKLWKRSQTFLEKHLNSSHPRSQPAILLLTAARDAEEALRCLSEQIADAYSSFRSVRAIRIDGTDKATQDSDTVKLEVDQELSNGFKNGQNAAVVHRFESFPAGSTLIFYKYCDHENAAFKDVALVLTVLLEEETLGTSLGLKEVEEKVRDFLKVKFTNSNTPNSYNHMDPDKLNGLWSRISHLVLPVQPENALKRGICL
UniProt Q53ET0: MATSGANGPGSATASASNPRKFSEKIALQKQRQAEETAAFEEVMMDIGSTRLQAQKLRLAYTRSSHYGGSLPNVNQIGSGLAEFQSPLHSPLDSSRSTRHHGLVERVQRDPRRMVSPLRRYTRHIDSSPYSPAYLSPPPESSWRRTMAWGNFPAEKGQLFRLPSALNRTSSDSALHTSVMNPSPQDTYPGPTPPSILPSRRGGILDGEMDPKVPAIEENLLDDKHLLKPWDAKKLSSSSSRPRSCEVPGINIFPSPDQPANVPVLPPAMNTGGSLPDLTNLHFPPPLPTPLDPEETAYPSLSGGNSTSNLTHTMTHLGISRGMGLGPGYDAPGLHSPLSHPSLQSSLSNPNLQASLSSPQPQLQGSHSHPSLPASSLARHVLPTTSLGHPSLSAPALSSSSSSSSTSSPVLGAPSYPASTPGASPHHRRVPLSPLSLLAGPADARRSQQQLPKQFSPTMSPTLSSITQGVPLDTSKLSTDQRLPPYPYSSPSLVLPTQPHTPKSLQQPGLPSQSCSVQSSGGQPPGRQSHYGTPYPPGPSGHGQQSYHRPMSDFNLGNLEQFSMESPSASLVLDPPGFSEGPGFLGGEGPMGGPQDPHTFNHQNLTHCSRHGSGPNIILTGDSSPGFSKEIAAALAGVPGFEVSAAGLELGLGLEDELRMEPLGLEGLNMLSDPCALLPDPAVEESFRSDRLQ

± gives the standard deviation of the averaged measurements. This is a selection; strong and weak results do not stand in their true shares. Small differences around the control level are noise.

Compound in one test: Nc1ncnc2c1ncn2[C@@H]1O[C@H](COP(=O)(O)OP(=O)(O)NP(=O)(O)O)[C@@H](O)[C@H]1O [adenylyl imidodiphosphate]
The experiment in a line: NP40-soluble protein abundance relative to vehicle (solubility fold change) (ratio); higher = more soluble protein in presence of AMP-PNP. As to conditions: concentration: 0.1mM. The method, boiled down:
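Crude Jurkat lysate, prepared by Dounce homogenisation, was exposed to eight concentrations from 0.1 to 10 mM for 10 min at room temperature and then 3 min at 37 °C. Solubilisation used 0.8% NP40 with benzonase for 60 min at 4 °C, followed by ultracentrifugation and TMT labelling of the supernatant for LC-MS/MS. After vsn normalisation of intensities, each value is the fold change against the detergent-processed vehicle within each replicate, across three independent experiments.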
Regarding UniProt Q16875 and related entries, the NP40-soluble protein abundance amounted to 0.995 ± 0.023.
Same read-out and setting: for FAM98C (UniProt Q17RN3) the value was 0.988 ± 0.024; for ARHGAP15 (UniProt Q53QZ3), 1.02 ± 0.029; for NT5DC1 (UniProt Q5TFE4), 1 ± 0.018.
Take RIF1 (UniProt Q5UIP0): the NP40-soluble protein abundance came to 0.964 ± 0.025.
Still for that read-out and setting: as for UniProt Q504Q3 and related entries, the figure is 1 ± 0.021.
In the case of UBAP2 (UniProt Q5T6F2), the NP40-soluble protein abundance is 0.9965 ± 0.0052.
On to UniProt Q15796 and related entries, for which the NP40-soluble protein abundance is 1 ± 0.022.
For the target UniProt Q5JTJ3 and related entries, the NP40-soluble protein abundance was found to be 0.977 ± 0.033.
For PGGHG (UniProt Q32M88), the NP40-soluble protein abundance was determined as 1.01 ± 0.026.
PPA1 (UniProt Q15181): the NP40-soluble protein abundance came out at 0.9789 ± 0.0076.
On the same count and under the same terms, for HSD17B12 (UniProt Q53GQ0) the value was 1 ± 0.042.

The test is the same for the next values; noted with them: concentration: 0.5mM.
For the target LACTB2 (UniProt Q53H82), the NP40-soluble protein abundance came to 0.9851 ± 0.0047.
Regarding UniProt Q15653 and related entries, the NP40-soluble protein abundance stood at 0.986 ± 0.012.
The same measure, in the same setting: for “UniProt Q15782-5|H0YE91 and related entries” the value was 0.872 ± 0.074; for UBE2V2 (UniProt Q15819), 1.01 ± 0.048; for CMPK2 (UniProt Q5EBM0), 0.987 ± 0.051.
With UniProt Q5JWR5 and related entries, the NP40-soluble protein abundance is 1.01 ± 0.027.
For SAMD9 (UniProt Q5K651), the NP40-soluble protein abundance turned out to be 0.98 ± 0.052.
In the case of TAF9 (UniProt Q16594), the NP40-soluble protein abundance came to 1.02 ± 0.0083.
In the case of UniProt Q5JSZ5, the NP40-soluble protein abundance amounted to 1.02 ± 0.026.
Regarding UniProt Q15397, the NP40-soluble protein abundance came out at 1.02 ± 0.015.
As to UniProt Q15555 and related entries, the NP40-soluble protein abundance was found to be 1.02 ± 0.065.
Take UniProt Q3MHD2 and related entries: the NP40-soluble protein abundance came out at 1.06 ± 0.082.
Take UniProt Q15652 and related entries: the NP40-soluble protein abundance was 0.984 ± 0.022.
UniProt Q15633 and related entries: the NP40-soluble protein abundance amounted to 0.968 ± 0.011.
Same read-out and setting: for RHEB (UniProt Q15382) the value was 1.02 ± 0.011; for SF3A2 (UniProt Q15428), 1 ± 0.066; for UniProt Q53H47 and related entries, 0.993 ± 0.014.
Consider GRIPAP1 (UniProt Q4V328), for which the NP40-soluble protein abundance came out at 0.985 ± 0.051.
With UniProt Q5T0N5-4, the NP40-soluble protein abundance was determined as 0.986 ± 0.033.
Take TRIP13 (UniProt Q15645): the NP40-soluble protein abundance was found to be 0.974 ± 0.053.
Take CTC1 (UniProt Q2NKJ3): the NP40-soluble protein abundance turned out to be 0.9671 ± 0.0021.
The same measure, in the same setting: as for UniProt Q2T9J0 and related entries, the figure is 1.01 ± 0.037; as for UniProt Q5JTV8 and related entries, 0.981 ± 0.044; as for CRTC2 (UniProt Q53ET0), 0.991 ± 0.0037.
As to UniProt Q16698-2|Q16698, the NP40-soluble protein abundance amounted to 1.01 ± 0.062.
In the case of “Q5TBH9 and related entries (UniProt Q8NDD1)”, the NP40-soluble protein abundance worked out at 1.01 ± 0.051.
The same measure, in the same setting: for UniProt Q16875 and related entries the value was 0.994 ± 0.038; for FAM98C (UniProt Q17RN3), 0.997 ± 0.035; for ARHGAP15 (UniProt Q53QZ3), 1.02 ± 0.044.
On to NT5DC1 (UniProt Q5TFE4), for which the NP40-soluble protein abundance is 1 ± 0.046.
Regarding RIF1 (UniProt Q5UIP0), the NP40-soluble protein abundance stood at 0.993 ± 0.038.
With UniProt Q504Q3 and related entries, the NP40-soluble protein abundance stood at 1.005 ± 0.0091.
Still for that read-out and setting: as for UBAP2 (UniProt Q5T6F2), the figure is 1.01 ± 0.04; as for UniProt Q15796 and related entries, 1.05 ± 0.037; as for UniProt Q5JTJ3 and related entries, 1.01 ± 0.029.
Still for that read-out and setting: for PGGHG (UniProt Q32M88) the value was 0.998 ± 0.015; for PPA1 (UniProt Q15181), 1.01 ± 0.021.
As for HSD17B12 (UniProt Q53GQ0), the NP40-soluble protein abundance was found to be 1.01 ± 0.074.
